Results are given in words; binding and its absence hold for the method and conditions named.

Here are results for one molecule from PMC545800.

For the assay, the target named is tetratricopeptide repeat (TPR) domain of human PEX5 (Gal4pBD-TPR, plasmid hP87) (Homo sapiens). In words: two-hybrid; yeast strain PCY3 co-transformed with Gal4pAD-16mer (pGAD.GH) and Gal4pBD-TPR of PEX5 (pAH987 yeast or hP87 human); quantitative beta-galactosidase activity, cells grown in SC-leu-trp at 30°C; lower limit of around 10 Miller Units per mg protein for a productive interaction.

For the molecule EEVIRKIAEGLNKAKF [carboxy-terminal 16-mer of Archaeoglobus fulgidus 2-nitropropane dioxygenase (Gal4pAD-16mer)], the binding entry was “no binding”.
